PubChem BioAssay AID743121, NCATS, 2013
The deposit covers about 26,000 reagents; this is a random part of them. Of all reagents, 167 (0.63%) got an active call. 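Calls are per gene from RSA p-values that are not deposited; an individual active-marked siRNA can sensitise only weakly.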 Reagents against one gene are numbered here.

- Assay: 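Knock-downs that sensitise breast cancer cells to camptothecin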 (primary screen)
- System: MDA-MB-231 cells, a human breast cancer line
- Reagents: single siRNA against human genes, 20 nM siRNA (0.8 pmol per well)
- Time to read-out: 120 h (drug added 48 h after transfection, read 72 h later)
- Challenge: camptothecin 20 nM (about EC30) for 72 h; vehicle 0.1% DMSO in parallel plates
- Detection: 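Cell viability by ATP luminescence (CellTiter-Glo) as % of non-targeting siRNA wells, and the log2 ratio of viability without drug over viability with camptothecin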
- Reading the numbers: log2 vehicle/camptothecin viability: higher = stronger sensitisation to camptothecin; viability with camptothecin and viability without drug: higher = more viable cells
- Rule for the call: 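Active genes have an RSA gene-level p-value below 0.001, computed from the ratios of their separate siRNAs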

| gene symbol | reagent no. | log2 vehicle/camptothecin viability | viability with camptothecin (% of control) | viability without drug (% of control) | call |
| --- | --- | --- | --- | --- | --- |
| PELP1 (proline, glutamate and leucine rich protein 1) | 1 | -0.195 | 84.3 | 73.6 | inactive |
| PELP1 (proline, glutamate and leucine rich protein 1) | 2 | -0.573 | 75.7 | 50.9 | inactive |
| PELP1 (proline, glutamate and leucine rich protein 1) | 3 | -0.528 | 87.6 | 60.8 | inactive |
| PELP1 (proline, glutamate and leucine rich protein 1) | 4 | -0.00803 | 43.5 | 43.2 | inactive |
| ABCD3 (ATP binding cassette subfamily D member 3) | 1 | -0.107 | 85.5 | 79.4 | inactive |
| ABCD3 (ATP binding cassette subfamily D member 3) | 2 | -0.154 | 64.7 | 58.2 | inactive |
| ABCD3 (ATP binding cassette subfamily D member 3) | 3 | -0.0441 | 32.9 | 31.9 | inactive |
| ABCD3 (ATP binding cassette subfamily D member 3) | 4 | 0.0928 | 56.7 | 60.4 | inactive |
| PLA2G1B (phospholipase A2 group IB) | 1 | -0.053 | 73.8 | 71.1 | inactive |
| PLA2G1B (phospholipase A2 group IB) | 2 | -0.0239 | 106 | 104 | inactive |
| PLA2G1B (phospholipase A2 group IB) | 3 | -0.242 | 82.6 | 69.9 | inactive |
| PLA2G1B (phospholipase A2 group IB) | 4 | 0.157 | 65.9 | 73.5 | inactive |
| ACTL6B (actin like 6B) | 1 | -0.472 | 93.9 | 67.7 | inactive |
| ACTL6B (actin like 6B) | 2 | 0.0387 | 58.6 | 60.2 | inactive |
| ACTL6B (actin like 6B) | 3 | -0.337 | 81.7 | 64.6 | inactive |
| KIFC2 (kinesin family member C2) | 1 | -0.215 | 99.1 | 85.3 | inactive |
| KIFC2 (kinesin family member C2) | 2 | -0.888 | 73.2 | 39.5 | inactive |
| KIFC2 (kinesin family member C2) | 3 | 0.328 | 54.8 | 68.8 | inactive |
| KIFC2 (kinesin family member C2) | 4 | 0.148 | 82.7 | 91.7 | inactive |
| TSPO (translocator protein) | 1 | 0.429 | 80.6 | 108 | inactive |
| TSPO (translocator protein) | 2 | -0.276 | 44.2 | 36.5 | inactive |
| TSPO (translocator protein) | 3 | 0.582 | 18 | 26.9 | inactive |
| FBXW5 (F-box and WD repeat domain containing 5) | 1 | 0.104 | 24.7 | 26.5 | inactive |
| FBXW5 (F-box and WD repeat domain containing 5) | 2 | -0.122 | 32.1 | 29.5 | inactive |
| FBXW5 (F-box and WD repeat domain containing 5) | 3 | -0.152 | 54 | 48.6 | inactive |
| FBXW5 (F-box and WD repeat domain containing 5) | 4 | 0.0751 | 71.6 | 75.5 | inactive |

A few values from the list:
KIFC2 (kinesin family member C2) #1, log2 vehicle/camptothecin viability = -0.215
ACTL6B (actin like 6B) #2, viability without drug (% of control): 60.2
Under “viability with camptothecin (% of control)”, ACTL6B (actin like 6B) #3 has 81.7
Under “call”, FBXW5 (F-box and WD repeat domain containing 5) #1 reads inactive
For “viability with camptothecin (% of control)”, KIFC2 (kinesin family member C2) #2 shows 73.2

Additional results:
| gene symbol | reagent no. | log2 vehicle/camptothecin viability | viability with camptothecin (% of control) | viability without drug (% of control) | call |
| --- | --- | --- | --- | --- | --- |
| BRCA2 (BRCA2 DNA repair associated) | 1 | 0.0149 | 82.9 | 83.7 | inactive |
| BRCA2 (BRCA2 DNA repair associated) | 2 | 0.737 | 45.9 | 76.5 | inactive |
| BRCA2 (BRCA2 DNA repair associated) | 3 | -0.173 | 66 | 58.6 | inactive |
| BRCA2 (BRCA2 DNA repair associated) | 4 | -0.156 | 38.2 | 34.3 | inactive |
| ERN2 (endoplasmic reticulum to nucleus signaling 2) | 1 | -0.313 | 86.5 | 69.6 | inactive |
| ERN2 (endoplasmic reticulum to nucleus signaling 2) | 2 | -0.534 | 97.9 | 67.6 | inactive |
| ERN2 (endoplasmic reticulum to nucleus signaling 2) | 3 | -0.0674 | 44.2 | 42.2 | inactive |
| ERN2 (endoplasmic reticulum to nucleus signaling 2) | 4 | 0.513 | 17.2 | 24.6 | inactive |
| NXN (nucleoredoxin) | 1 | -0.429 | 40.4 | 30 | inactive |
| NXN (nucleoredoxin) | 2 | 0.103 | 46.8 | 50.3 | inactive |
| NXN (nucleoredoxin) | 3 | -0.512 | 84.2 | 59.1 | inactive |
| KCNF1 | 1 | 0.205 | 26.1 | 30.1 | inactive |
| KCNF1 | 2 | 1.04 | 21.5 | 44.2 | inactive |
| KCNF1 | 3 | -0.288 | 88 | 72.1 | inactive |
| SLC5A1 | 1 | -0.457 | 42.1 | 30.7 | inactive |
| SLC5A1 | 2 | 0.299 | 55.8 | 68.6 | inactive |
| SLC5A1 | 3 | -0.115 | 84.3 | 77.9 | inactive |
| SLC5A1 | 4 | -0.282 | 66.3 | 54.5 | inactive |
| HACD1 (3-hydroxyacyl-CoA dehydratase 1) | 1 | -0.132 | 105 | 95.4 | inactive |
| HACD1 (3-hydroxyacyl-CoA dehydratase 1) | 2 | -0.526 | 96.3 | 66.9 | inactive |
| HACD1 (3-hydroxyacyl-CoA dehydratase 1) | 3 | 0.139 | 115 | 126 | inactive |
| HACD1 (3-hydroxyacyl-CoA dehydratase 1) | 4 | -0.126 | 89.8 | 82.3 | inactive |
| PHLDA2 (pleckstrin homology like domain family A member 2) | 1 | -0.361 | 98.4 | 76.6 | inactive |
| PHLDA2 (pleckstrin homology like domain family A member 2) | 2 | -0.0186 | 105 | 104 | inactive |
| PHLDA2 (pleckstrin homology like domain family A member 2) | 3 | -0.371 | 41.6 | 32.2 | inactive |
| PHLDA2 (pleckstrin homology like domain family A member 2) | 4 | -0.331 | 111 | 88.2 | inactive |
| IRF4 (interferon regulatory factor 4) | 1 | 0.0907 | 74.5 | 79.3 | inactive |
| IRF4 (interferon regulatory factor 4) | 2 | 0.116 | 104 | 113 | inactive |
| IRF4 (interferon regulatory factor 4) | 3 | 0.583 | 11.4 | 17.1 | inactive |
| IRF4 (interferon regulatory factor 4) | 4 | 0.0388 | 93.5 | 96 | inactive |
| MCOLN2 (mucolipin TRP cation channel 2) | 1 | -0.227 | 120 | 102 | inactive |
| MCOLN2 (mucolipin TRP cation channel 2) | 2 | -0.245 | 113 | 95.5 | inactive |
| MCOLN2 (mucolipin TRP cation channel 2) | 3 | 0.254 | 70.4 | 83.9 | inactive |
| MCOLN2 (mucolipin TRP cation channel 2) | 4 | -0.339 | 76.6 | 60.5 | inactive |
| POLQ (DNA polymerase theta) | 1 | 0.061 | 96.3 | 100 | inactive |
| POLQ (DNA polymerase theta) | 2 | -0.357 | 71.7 | 56 | inactive |
| POLQ (DNA polymerase theta) | 3 | -0.235 | 110 | 93.1 | inactive |
| POLQ (DNA polymerase theta) | 4 | -0.165 | 138 | 123 | inactive |
| LEF1 (lymphoid enhancer binding factor 1) | 1 | -0.473 | 81.6 | 58.8 | inactive |
| LEF1 (lymphoid enhancer binding factor 1) | 2 | -0.105 | 86.5 | 80.4 | inactive |
| LEF1 (lymphoid enhancer binding factor 1) | 3 | 0.0618 | 67 | 69.9 | inactive |
| LEF1 (lymphoid enhancer binding factor 1) | 4 | 0.28 | 46.8 | 56.9 | inactive |
